The record followed here is PubChem BioAssay AID248 (DTP/NCI, 2004).

The experiment concerns L1210 leukemia ip in BDF1 mice, survival T/C. Put plainly: NCI In Vivo Anticancer Drug Screen. Data for tumor model L1210 Leukemia (intraperitoneal) in B6D2F1 (BDF1) mice. To be noted: T/C endpoint: mean survival time, higher T/C = longer survival.
The mark [1] stands for this setting: dose: 150.0 mg/kg/injection, schedule: Q01DX001 (ip), vehicle: saline.
Where [2] appears, read: dose: 300.0 mg/kg/injection, schedule: Q01DX001 (ip), vehicle: saline.
The mark [3] stands for this setting: dose: 400.0 mg/kg/injection, schedule: Q04DX003 (ip), vehicle: carboxymethylcellulose (CMC).
[4] abbreviates: dose: 100.0 mg/kg/injection, schedule: Q04DX003 (ip), vehicle: saline with Tween-80.
The mark [5] stands for this setting: dose: 200.0 mg/kg/injection, schedule: Q04DX003 (ip), vehicle: saline with Tween-80.
Where [6] appears, read: dose: 400.0 mg/kg/injection, schedule: Q04DX003 (ip), vehicle: saline with Tween-80.
Setting [7] is: dose: 400.0 mg/kg/injection, schedule: Q04DX003 (ip), vehicle: saline.

The list is a part of this screen's results and no random one: it gathers tests that were run many times, whatever their T/C, doses with no T/C, and many T/C values between a quarter and a half above the control. Other doses and runs of a compound stand elsewhere. T/C is the treated group as % of the vehicle group. Some entries give survivors of the animals treated and no T/C: the source files T/C as zero there, which appears to mark a toxic dose or a test without result, not a measured value. Some doses without a T/C left all or most animals alive at the check, yet need not have been tolerated: the source hardly ever lists a survival T/C far under the control, and the zero likely stands for such cases as well. Counts of survivors are from the toxicity check (mostly the fifth day) where no day follows; animals may have died later. Schedules are NCI's codes, taken here to give the interval after Q, in days (D) or hours (H), and the number of doses after X. Some molecules as drawn cover several salts, stereoisomers or complexes of the source; a dose is that of the sample tested. For survival time, this PubChem deposit counts one and a half times the control or more as active, and values a quarter to a half above the control carry no call in these data; other NCI protocols may use other cut-offs.

Consider `NS(=O)(=O)N1CCCCC1`, for which the survivor count by setting is: (dose: 75.0 mg/kg/injection, schedule: Q01DX001 (ip), vehicle: saline) 2 of 6; under setting [1], 0 of 6; under setting [2], 0 of 6.
In the case of `CNC(=S)Nc1ccccc1`, the survivor count under setting [3] was 1 of 6.
For the compound `CS(=O)(=O)c1ccc(Sc2ccc(S(C)(=O)=O)cc2)cc1`, the survivor count is listed as 3 of 6 under setting [4], 1 of 6 under setting [5] and 0 of 6 under setting [6].
With `CC(=O)OC(C#N)c1ccco1` (stereo not drawn), the survivor count runs as follows: (dose: 25.0 mg/kg/injection, schedule: Q04DX003 (ip), vehicle: saline with Tween-80) 0 of 6; (dose: 50.0 mg/kg/injection, schedule: Q04DX003 (ip), vehicle: saline with Tween-80) 0 of 6; under setting [4], 0 of 6; under setting [5], 0 of 6; under setting [6], 0 of 6.
Consider `CC1CCCC(C)N1NC1=NCCO1` (stereo not drawn), for which the survivor count runs as follows: under setting [5], 0 of 6; under setting [6], 0 of 6.
For the compound `CC1(C)OC2COC(CN(N=O)C(N)=O)C2O1` (stereo not drawn), the survivor count under setting [1] is reported as 2 of 6 and the survivor count under setting [2] is given as 0 of 6.
As to `O=C[N]([Hg][Cl])c1ccccc1`, the survivor count (dose: 3.13 mg/kg/injection, schedule: Q01DX009 (ip), vehicle: saline) was 6 of 6; the survivor count (dose: 6.25 mg/kg/injection, schedule: Q01DX009 (ip), vehicle: saline) was 4 of 6; the survivor count (dose: 100.0 mg/kg/injection, schedule: Q04DX002 (ip), vehicle: saline with Tween-80) is listed as 0 of 3; the survivor count (dose: 200.0 mg/kg/injection, schedule: Q04DX002 (ip), vehicle: saline with Tween-80) is recorded as 0 of 3; the survivor count (dose: 400.0 mg/kg/injection, schedule: Q04DX002 (ip), vehicle: saline with Tween-80) is given as 0 of 3.
In the case of `CCCCSCC(N)CO` (stereo not drawn), the survivor count under setting [7] is given as 1 of 6.
`O=C1OC(=O)C2C1C1(Cl)CC2(Cl)C(Cl)=C1Cl` (stereo not drawn): the survivor count (dose: 300.0 mg/kg/injection, schedule: Q01DX009 (ip), vehicle: other) was 0 of 6.
For `CN(C)c1ncnc2c1nnn2C1OC(CO)C(O)C1O` (stereo not drawn), the T/C (dose: 600.0 mg/kg/injection, schedule: Q01DX001 (ip), vehicle: saline) is 132 % of control.
Take `COc1ccc(/C=C/c2nc3ccccc3nc2/C=C/c2ccc(OC)c(OC)c2)cc1OC`: the survivor count (dose: 400.0 mg/kg/injection, schedule: Q01DX009 (ip), vehicle: Klucel (hydroxypropylcellulose) (HPC)) is recorded as 6 of 6.
As to `CCN1/C(=C/C(C)=C/c2sc3ccccc3[n+]2CC)Sc2ccccc21`, the survivor count reads like this: (dose: 9.5 mg/kg/injection, schedule: Q01DX001 (ip), vehicle: other) 0 of 6; (dose: 19.0 mg/kg/injection, schedule: Q01DX001 (ip), vehicle: other) 0 of 6; (dose: 38.0 mg/kg/injection, schedule: Q01DX001 (ip), vehicle: other) 0 of 6; (dose: 300.0 micrograms/kg/injection, schedule: Q01DX015 (ip), vehicle: saline) 3 of 6; (dose: 450.0 micrograms/kg/injection, schedule: Q01DX015 (ip), vehicle: saline) 3 of 6; (dose: 675.0 micrograms/kg/injection, schedule: Q01DX015 (ip), vehicle: saline) 2 of 6.
Take `C[Si](C)(C)Cc1ccccc1`: the survivor count by setting is: (dose: 100.0 mg/kg/injection, schedule: Q01DX001 (ip), vehicle: carboxymethylcellulose (CMC)) 4 of 4; (dose: 400.0 mg/kg/injection, schedule: Q01DX001 (ip), vehicle: carboxymethylcellulose (CMC)) 4 of 4.
`C=C(Br)CNC(=O)NCC`: the survivor count is, setting by setting: under setting [5], 3 of 6; under setting [6], 0 of 6.
As for `CC(=O)/C=N/Nc1ccccc1`, the survivor count is listed as 1 of 6 (dose: 200.0 mg/kg/injection, schedule: Q04DX003 (ip), vehicle: carboxymethylcellulose (CMC)) and 0 of 6 under setting [3].
`O=C(O)C(O)C(=O)O.[NH2-].[NH2-].[Pt+2]`: the survivor count was 0 of 6 (dose: 1.0 mg/kg/injection, schedule: Q01DX009 (ip), vehicle: other); 10 of 10 (dose: 200.0 mg/kg/injection, schedule: Q04DX003 (ip), vehicle: saline); 8 of 10 under setting [7]. Besides, the T/C (dose: 16.0 mg/kg/injection, schedule: Q01DX009 (ip), vehicle: other) was 143 % of control; the T/C (dose: 20.0 mg/kg/injection, schedule: Q01DX001 (ip), vehicle: other) is 144 % of control; the T/C (dose: 40.0 mg/kg/injection, schedule: Q01DX001 (ip), vehicle: other) is 149 % of control; the T/C (dose: 50.0 mg/kg/injection, schedule: Q04DX003 (ip), vehicle: saline) is 138 % of control; the T/C (dose: 60.0 mg/kg/injection, schedule: Q01DX001 (ip), vehicle: other) is 135 % of control; the T/C (dose: 64.0 mg/kg/injection, schedule: Q01DX001 (ip), vehicle: other) is 143 % of control. Moreover, the T/C is 127 % of control (dose: 80.0 mg/kg/injection, schedule: Q01DX001 (ip), vehicle: other) and 136 % of control (dose: 100.0 mg/kg/injection, schedule: Q04DX003 (ip), vehicle: saline).
